Values from PubChem BioAssay AID602196 (INSERM, 2012)
Aim: 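Modifiers of cisplatin sensitivity in A549 cells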. System: human A549 lung cancer cells. Reagent: siRNA pair against human genes. Duration: 48 h transfection before cisplatin; time from cisplatin to read-out not stated. Treatment: cisplatin at a dose killing half of control-siRNA cells; exact dose and duration not given. Read-out: 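Shift in cisplatin death relative to control siRNA, from -50 (all cells die) to +50 (no cells die); siRNAs harmful on their own scored 0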. Direction: two-siRNA summed score (-2 to +2): higher = both siRNAs protect from cisplatin killing; -2 means both sensitise; mean protection from cisplatin (shift in death): higher = protection from cisplatin killing. Hit rule: 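Each siRNA scores 0 if harmful alone by LDH or WST-1, otherwise +1 if it reduces and -1 if it increases cisplatin killing; a gene is active when both siRNAs agree (sum +2 or -2)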. Calls: active = both siRNAs shift cisplatin killing the same way; inactive = no consistent shift, or siRNA harmful alone.
The whole screen tested about 23,000 reagents; shown is a random part of them. 455 of them (2%) count as active. 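Active includes both protection and sensitisation; some change values fall well beyond the stated -50 to +50 range.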 Not all columns of the deposit are shown. Not stated in the record: the amount of reagent.

gene symbol,two-siRNA summed score (-2 to +2),mean protection from cisplatin (shift in death) (%),activity call
HK1,-1,-7.1,inactive
LOC440345,0,9.5,inactive
OR13A1,0,14.4,inactive
YJU2,-1,-9.1,inactive
LOC347421,0,11.6,inactive
HM13,0,2.4,inactive
OLFML3,0,-0.6,inactive
GNAI2,0,7.4,inactive
KLK1,0,0.3,inactive
NTHL1,0,-4.4,inactive
ZFR2,0,8.1,inactive
MAP3K11,1,16.1,inactive
SCGB1D4,0,1.1,inactive
EBF3,0,16.8,inactive
NSUN4,0,2,inactive
CBX1,1,6.8,inactive
CCNA1,0,-6.8,inactive
TNFRSF10B,1,11.4,inactive
TRA2A,0,11.1,inactive
LOC402532,0,5.2,inactive
LOC440012,0,8.2,inactive

In a second layout: 7 of the entries above.
KLK1
- two-siRNA summed score (-2 to +2): 0
- mean protection from cisplatin (shift in death) (%): 0.3
- activity call: inactive

NTHL1
- two-siRNA summed score (-2 to +2): 0
- mean protection from cisplatin (shift in death) (%): -4.4
- activity call: inactive

ZFR2
- two-siRNA summed score (-2 to +2): 0
- mean protection from cisplatin (shift in death) (%): 8.1
- activity call: inactive

MAP3K11
- two-siRNA summed score (-2 to +2): 1
- mean protection from cisplatin (shift in death) (%): 16.1
- activity call: inactive

SCGB1D4
- two-siRNA summed score (-2 to +2): 0
- mean protection from cisplatin (shift in death) (%): 1.1
- activity call: inactive

EBF3
- two-siRNA summed score (-2 to +2): 0
- mean protection from cisplatin (shift in death) (%): 16.8
- activity call: inactive

NSUN4
- two-siRNA summed score (-2 to +2): 0
- mean protection from cisplatin (shift in death) (%): 2
- activity call: inactive

Continued.
gene symbol,two-siRNA summed score (-2 to +2),mean protection from cisplatin (shift in death) (%),activity call
HPSE,0,15,inactive
LOC159170,0,0.5,inactive
CFC1,-1,-10.6,inactive
ZNF410,0,6.3,inactive
OTULIN,0,5.8,inactive
ZNF57,0,4,inactive
SUGP2,-1,-6.6,inactive
LOC388297,1,28.8,inactive
LRRC55,0,-5.2,inactive
ABCB8,-1,-27.5,inactive
TM4SF19,0,-0.3,inactive
AQP8,1,14.2,inactive
LOC152122,0,20.2,inactive
LKAAEAR1,0,-0.1,inactive
RBFOX1,0,0.5,inactive
LOC124512,1,6.6,inactive
GFOD2,0,-0.4,inactive
LY6K,0,6.4,inactive
POLQ,-1,-10.8,inactive
LOXHD1,0,-3.1,inactive
LIG4,0,3.8,inactive
ITSN2,0,15.4,inactive
DAAM2,0,2.9,inactive
SCGB1C1,0,2.8,inactive
PFDN1,0,13.3,inactive
TMEM184A,0,12.2,inactive
LOC389099,0,5.9,inactive
LOC392487,0,7.3,inactive
TIMM17A,0,0.7,inactive
ZNF345,0,-7.1,inactive
PADI2,0,-0.3,inactive
EPHA4,1,13.9,inactive
IRF5,1,20.7,inactive
FLJ25415,0,10.2,inactive
ATXN7L3,-1,-4.1,inactive
LIFR,0,-8.9,inactive
